Data: paper doi:10.1101/410092
These are yes or no findings as the source states them, for the method shown. In cells and extracts the contact can be indirect. Some results given as binding are weak or reduced against the parent protein; the word gives no strength. Tags and fused reporters may be left off the sequences shown.

Experiments:
Assay in all cases: co-IP
[1] = biological target: T1, Unc93b1 triple-alanine mutant of amino acids 273-275, 3xFLAG-tagged (mouse) (UniProt Q8VCW4)
T1 sequence: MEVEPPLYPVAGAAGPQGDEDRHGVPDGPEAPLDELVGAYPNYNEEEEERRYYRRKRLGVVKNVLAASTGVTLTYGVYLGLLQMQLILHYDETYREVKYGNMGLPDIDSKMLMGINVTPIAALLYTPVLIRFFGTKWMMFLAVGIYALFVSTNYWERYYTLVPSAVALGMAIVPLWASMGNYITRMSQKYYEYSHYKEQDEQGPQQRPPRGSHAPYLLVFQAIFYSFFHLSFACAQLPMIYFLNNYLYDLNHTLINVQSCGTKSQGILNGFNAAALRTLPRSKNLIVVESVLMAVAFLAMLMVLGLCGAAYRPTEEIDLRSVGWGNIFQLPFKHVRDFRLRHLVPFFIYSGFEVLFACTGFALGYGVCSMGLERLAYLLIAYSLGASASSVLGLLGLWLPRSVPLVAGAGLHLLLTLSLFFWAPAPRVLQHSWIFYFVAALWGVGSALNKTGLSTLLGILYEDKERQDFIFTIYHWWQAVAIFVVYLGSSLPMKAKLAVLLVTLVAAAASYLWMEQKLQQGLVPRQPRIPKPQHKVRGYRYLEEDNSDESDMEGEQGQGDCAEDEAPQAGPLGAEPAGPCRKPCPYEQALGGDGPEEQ

[2] = biological target: T2, Unc93b1 wildtype, 3xFLAG-tagged (mouse) (UniProt Q8VCW4)
T2 sequence: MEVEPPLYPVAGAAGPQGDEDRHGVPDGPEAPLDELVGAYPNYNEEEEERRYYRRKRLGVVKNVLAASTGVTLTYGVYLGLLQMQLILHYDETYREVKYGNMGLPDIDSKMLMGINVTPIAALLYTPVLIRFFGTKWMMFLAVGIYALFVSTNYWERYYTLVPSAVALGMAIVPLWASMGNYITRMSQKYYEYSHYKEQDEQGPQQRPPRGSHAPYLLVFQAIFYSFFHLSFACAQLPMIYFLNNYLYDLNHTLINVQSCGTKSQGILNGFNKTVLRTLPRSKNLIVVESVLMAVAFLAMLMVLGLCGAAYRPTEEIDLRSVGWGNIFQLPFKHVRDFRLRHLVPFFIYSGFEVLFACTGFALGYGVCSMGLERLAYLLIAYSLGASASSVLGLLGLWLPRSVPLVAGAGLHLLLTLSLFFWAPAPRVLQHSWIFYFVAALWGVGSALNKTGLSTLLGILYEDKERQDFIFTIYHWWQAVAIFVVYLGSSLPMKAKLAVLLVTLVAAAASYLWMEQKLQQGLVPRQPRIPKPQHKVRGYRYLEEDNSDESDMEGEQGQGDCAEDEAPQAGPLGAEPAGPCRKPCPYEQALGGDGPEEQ

[3] = biological target: T3, Unc93b1^S282A, 3xFLAG-tagged (mouse) (UniProt Q8VCW4)
T3 sequence: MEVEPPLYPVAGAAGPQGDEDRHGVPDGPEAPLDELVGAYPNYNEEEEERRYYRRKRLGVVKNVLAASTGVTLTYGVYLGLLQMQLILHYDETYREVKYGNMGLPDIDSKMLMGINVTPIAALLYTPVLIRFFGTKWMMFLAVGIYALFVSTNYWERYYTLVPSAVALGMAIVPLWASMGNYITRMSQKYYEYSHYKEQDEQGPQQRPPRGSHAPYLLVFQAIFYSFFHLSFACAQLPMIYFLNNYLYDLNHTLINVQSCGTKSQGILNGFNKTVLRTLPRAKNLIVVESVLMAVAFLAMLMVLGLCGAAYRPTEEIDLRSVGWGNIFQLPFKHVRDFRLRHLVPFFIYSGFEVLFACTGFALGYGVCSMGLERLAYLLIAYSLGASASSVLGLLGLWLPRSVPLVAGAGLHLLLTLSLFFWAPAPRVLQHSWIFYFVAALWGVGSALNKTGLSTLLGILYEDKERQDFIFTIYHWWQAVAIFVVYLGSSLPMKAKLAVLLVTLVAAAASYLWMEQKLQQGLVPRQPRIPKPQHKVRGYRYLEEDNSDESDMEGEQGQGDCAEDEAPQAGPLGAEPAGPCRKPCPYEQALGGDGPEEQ

[4] = biological target: T4, Unc93b1^SKN (SKN to AAA at residues 282-284), 3xFLAG-tagged (mouse) (UniProt Q8VCW4)
T4 sequence: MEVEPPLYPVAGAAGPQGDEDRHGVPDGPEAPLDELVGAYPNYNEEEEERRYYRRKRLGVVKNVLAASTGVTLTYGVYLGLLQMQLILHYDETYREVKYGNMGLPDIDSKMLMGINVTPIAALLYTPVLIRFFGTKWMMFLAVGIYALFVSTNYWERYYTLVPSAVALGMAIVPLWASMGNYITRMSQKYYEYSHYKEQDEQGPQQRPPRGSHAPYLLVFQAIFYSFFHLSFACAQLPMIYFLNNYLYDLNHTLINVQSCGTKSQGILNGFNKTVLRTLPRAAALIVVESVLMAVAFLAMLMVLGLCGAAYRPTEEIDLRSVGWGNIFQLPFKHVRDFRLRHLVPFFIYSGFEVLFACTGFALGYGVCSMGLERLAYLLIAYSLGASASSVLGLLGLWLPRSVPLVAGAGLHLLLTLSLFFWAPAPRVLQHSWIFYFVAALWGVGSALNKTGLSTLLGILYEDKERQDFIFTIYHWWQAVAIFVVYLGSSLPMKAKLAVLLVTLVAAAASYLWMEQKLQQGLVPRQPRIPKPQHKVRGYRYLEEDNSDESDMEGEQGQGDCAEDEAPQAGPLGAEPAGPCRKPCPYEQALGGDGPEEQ

Measured: binding

B1: TLR9, HA-tagged (receptor, UniProt Q9EQU3 26-1032)
chain: LGTLPAFLPCELKPHGLVDCNWLFLKSVPRFSAAASCSNITRLSLISNRIHHLHNSDFVHLSNLRQLNLKWNCPPTGLSPLHFSCHMTIEPRTFLAMRTLEELNLSYNGITTVPRLPSSLVNLSLSHTNILVLDANSLAGLYSLRVLFMDGNCYYKNPCTGAVKVTPGALLGLSNLTHLSLKYNNLTKVPRQLPPSLEYLLVSYNLIVKLGPEDLANLTSLRVLDVGGNCRRCDHAPNPCIECGQKSLHLHPETFHHLSHLEGLVLKDSSLHTLNSSWFQGLVNLSVLDLSENFLYESITHTNAFQNLTRLRKLNLSFNYRKKVSFARLHLASSFKNLVSLQELNMNGIFFRLLNKYTLRWLADLPKLHTLHLQMNFINQAQLSIFGTFRALRFVDLSDNRISGPSTLSEATPEEADDAEQEELLSADPHPAPLSTPASKNFMDRCKNFKFTMDLSRNNLVTIKPEMFVNLSRLQCLSLSHNSIAQAVNGSQFLPLTNLQVLDLSHNKLDLYHWKSFSELPQLQALDLSYNSQPFSMKGIGHNFSFVTHLSMLQSLSLAHNDIHTRVSSHLNSNSVRFLDFSGNGMGRMWDEGGLYLHFFQGLSGLLKLDLSQNNLHILRPQNLDNLPKSLKLLSLRDNYLSFFNWTSLSFLPNLEVLDLAGNQLKALTNGTLPNGTLLQKLDVSSNSIVSVVPAFFALAVELKEVNLSHNILKTVDRSWFGPIVMNLTVLDVRSNPLHCACGAAFVDLLLEVQTKVPGLANGVKCGSPGQLQGRSIFAQDLRLCLDEVLSWDCFGLSLLAVAVGMVVPILHHLCGWDVWYCFHLCLAWLPLLARSRRSAQTLPYDAFVVFDKAQSAVADWVYNELRVRLEERRGRRALRLCLEDRDWLPGQTLFENLWASIYGSRKTLFVLAHTDRVSGLLRTSFLLAQQRLLEDRKDVVVLVILRPDAHRSRYVRLRQRLCRQSVLFWPQQPNGQGGFWAQLSTALTRDNRHFYNQNFCRGPTAE
binds: all assays above
